Values from PubChem BioAssay AID652272 (Drosophila RNAi Screening Center, 2013).
In all, the deposit lists about 21,000 reagents; below is an unselected part of those with a known target gene and a result. In the full data, 503 (2.4%) got an active call. 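Raw plate light values, not normalised; calls rest on replicate z-scores that were not deposited; hits include reporter decreases as well as increases.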 A plus sign joins genes that one reagent is predicted to hit. Not stated in the record: the amount of reagent, the time to read-out.

Assay: 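Genes whose knock-down decreases or increases Hedgehog reporter output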 (primary screen)
Cell system: Drosophila clone 8 (Cl8) cells
Reagent: long dsRNA against Drosophila genes
Measured: 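Firefly light from a Hedgehog-responsive ptc promoter reporter and Renilla reference light, both read on a plate reader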
Direction: firefly Hh reporter signal: higher = more ptc reporter light; Renilla reference signal: higher = more Renilla control light
Active means: 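Hit when the z-score averaged over two replicates is under -2 or over +3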
Calls: active = hit: reporter lowered or raised; inactive = not a hit

After knock-down of eIF2Bdelta [DRSC04058], the screen gave firefly Hh reporter signal, replicate 1 = 92549; firefly Hh reporter signal, replicate 2 = 78579; Renilla reference signal, replicate 1 = 3866; Renilla reference signal, replicate 2 = 3142; inactive. Depletion of CG33655 [DRSC03858] came out at: firefly Hh reporter signal, replicate 1 = 1.21e5; firefly Hh reporter signal, replicate 2 = 1.77e5; Renilla reference signal, replicate 1 = 3328; Renilla reference signal, replicate 2 = 8208; inactive. With knock-down of spoon [DRSC18299], the screen gave firefly Hh reporter signal, replicate 1 = 87286; firefly Hh reporter signal, replicate 2 = 71224; Renilla reference signal, replicate 1 = 2023; Renilla reference signal, replicate 2 = 1584; inactive. Silencing of Socs44A [DRSC06828] came out at: firefly Hh reporter signal, replicate 1 = 1.06e5; firefly Hh reporter signal, replicate 2 = 61666; Renilla reference signal, replicate 1 = 2883; Renilla reference signal, replicate 2 = 5689; inactive. CG34194 [DRSC05666] gave firefly Hh reporter signal, replicate 1 = 73384; firefly Hh reporter signal, replicate 2 = 1.42e5; Renilla reference signal, replicate 1 = 2978; Renilla reference signal, replicate 2 = 8514; active. After knock-down of CG42749 [DRSC18091] the results were firefly Hh reporter signal, replicate 1 = 1.09e5; firefly Hh reporter signal, replicate 2 = 3.13e5; Renilla reference signal, replicate 1 = 3712; Renilla reference signal, replicate 2 = 10707; inactive.

For CG42749 [DRSC18092], the values are firefly Hh reporter signal, replicate 1 = 55773; firefly Hh reporter signal, replicate 2 = 1.84e5; Renilla reference signal, replicate 1 = 1840; Renilla reference signal, replicate 2 = 6432; inactive. aph-1 [DRSC00547] showed firefly Hh reporter signal, replicate 1 = 64726; firefly Hh reporter signal, replicate 2 = 58663; Renilla reference signal, replicate 1 = 3133; Renilla reference signal, replicate 2 = 3099; inactive. Against Nipsnap [DRSC20169], the values are firefly Hh reporter signal, replicate 1 = 77123; firefly Hh reporter signal, replicate 2 = 86307; Renilla reference signal, replicate 1 = 2432; Renilla reference signal, replicate 2 = 2233; inactive. After knock-down of asp [DRSC16903], the record shows firefly Hh reporter signal, replicate 1 = 1.04e5; firefly Hh reporter signal, replicate 2 = 63729; Renilla reference signal, replicate 1 = 4976; Renilla reference signal, replicate 2 = 2804; inactive. Against vls [DRSC02101], the values are firefly Hh reporter signal, replicate 1 = 1.03e5; firefly Hh reporter signal, replicate 2 = 56370; Renilla reference signal, replicate 1 = 3696; Renilla reference signal, replicate 2 = 2476; inactive. Ufc1 [DRSC07156] showed firefly Hh reporter signal, replicate 1 = 1.01e5; firefly Hh reporter signal, replicate 2 = 76912; Renilla reference signal, replicate 1 = 4634; Renilla reference signal, replicate 2 = 2973; inactive.

For CG30148 [DRSC06391], the values are firefly Hh reporter signal, replicate 1 = 5.58e5; firefly Hh reporter signal, replicate 2 = 1.07e5; Renilla reference signal, replicate 1 = 4612; Renilla reference signal, replicate 2 = 4612; inactive. her [DRSC03543] gave firefly Hh reporter signal, replicate 1 = 61165; firefly Hh reporter signal, replicate 2 = 81584; Renilla reference signal, replicate 1 = 2893; Renilla reference signal, replicate 2 = 3536; inactive. dac [DRSC03518] scored firefly Hh reporter signal, replicate 1 = 1.33e5; firefly Hh reporter signal, replicate 2 = 64486; Renilla reference signal, replicate 1 = 2953; Renilla reference signal, replicate 2 = 2723; inactive. With knock-down of S-Lap2 [DRSC10628] the results were firefly Hh reporter signal, replicate 1 = 71163; firefly Hh reporter signal, replicate 2 = 60093; Renilla reference signal, replicate 1 = 5648; Renilla reference signal, replicate 2 = 4369; inactive. CG33770 [DRSC11717] showed firefly Hh reporter signal, replicate 1 = 93721; firefly Hh reporter signal, replicate 2 = 98155; Renilla reference signal, replicate 1 = 1809; Renilla reference signal, replicate 2 = 1577; inactive. Depletion of Mst57Dc [DRSC16745] resulted in: firefly Hh reporter signal, replicate 1 = 4.63e5; firefly Hh reporter signal, replicate 2 = 1.60e5; Renilla reference signal, replicate 1 = 22167; Renilla reference signal, replicate 2 = 4428; inactive.

Tsp42Eq [DRSC06180] scored firefly Hh reporter signal, replicate 1 = 76394; firefly Hh reporter signal, replicate 2 = 49500; Renilla reference signal, replicate 1 = 1719; Renilla reference signal, replicate 2 = 4413; inactive. With knock-down of sloth2 + sloth1 [DRSC17922] the results were firefly Hh reporter signal, replicate 1 = 93415; firefly Hh reporter signal, replicate 2 = 2.74e5; Renilla reference signal, replicate 1 = 3413; Renilla reference signal, replicate 2 = 9664; inactive. sloth2 + sloth1 [DRSC17923] showed firefly Hh reporter signal, replicate 1 = 1.04e5; firefly Hh reporter signal, replicate 2 = 3.67e5; Renilla reference signal, replicate 1 = 3603; Renilla reference signal, replicate 2 = 12864; inactive. CG31562 (retired record) [DRSC12273] gave firefly Hh reporter signal, replicate 1 = 98983; firefly Hh reporter signal, replicate 2 = 1.66e5; Renilla reference signal, replicate 1 = 3920; Renilla reference signal, replicate 2 = 4022; inactive. After knock-down of CG31562 (retired record) [DRSC12274], the record shows firefly Hh reporter signal, replicate 1 = 94696; firefly Hh reporter signal, replicate 2 = 1.11e5; Renilla reference signal, replicate 1 = 3672; Renilla reference signal, replicate 2 = 3126; inactive. Against Cpr65Ea [DRSC11027], the values are firefly Hh reporter signal, replicate 1 = 46217; firefly Hh reporter signal, replicate 2 = 61106; Renilla reference signal, replicate 1 = 5462; Renilla reference signal, replicate 2 = 4675; inactive.

With knock-down of aos [DRSC11323], the record shows firefly Hh reporter signal, replicate 1 = 97241; Renilla reference signal, replicate 1 = 5028; Renilla reference signal, replicate 2 = 2807; inactive. For Cyp6d5 [DRSC16634], the entry reads firefly Hh reporter signal, replicate 1 = 1.09e5; firefly Hh reporter signal, replicate 2 = 71771; Renilla reference signal, replicate 1 = 3891; Renilla reference signal, replicate 2 = 2617; inactive. After knock-down of CG6845 [DRSC08576], the screen gave firefly Hh reporter signal, replicate 1 = 1.01e5; firefly Hh reporter signal, replicate 2 = 60421; Renilla reference signal, replicate 1 = 4263; Renilla reference signal, replicate 2 = 2611; inactive.
